According to patent US20030114445A1, “N3-substituted 6-anilinopyrimidines and methods to treat-Gram-positive bacterial and mycoplasmal infections” (priority 2001, published 2003):

Tested on: B. subtilis
Experiment: Inhibition of bacterial growth on agar plates (MIC)
Type: cell-based
Conditions: 37° C., 24 hours
Protocol: Each compound is assayed against a panel of Bacillus, Enterococcus and Staphylococcus, and a Gram-negative bacterium Escherichia coli as negative control, grown in appropriate plate media solidified with 1.3% agar-agar. Stock solutions of the compounds in dimethylsulfoxide or water, depending on solubility, are added to sterile medium at a temperature of 60° C. This stock mixture is diluted with drug-free medium and used to make a series of Petri plates containing inhibitor in a series of two-fold serial dilutions, from about 80 to 0.625 μg/mL. One tenth mL of diluted bacteria containing 500-1000 colony-forming units (CFU) are plated and spread, and the plates incubated at 37° C. for 24 hours. MIC (minimum inhibitory concentration) is equivalent to the lowest concentration at which growth, i.e. colony formation, is not observed.

CCc1cc(Nc2cc(=O)n(CCCCN3C[C@@H](C)O[C@@H](C)C3)c(=O)[nH]2)ccc1C (relative stereo)
MIC B. subtilis: 2.5 µg/mL (≈ 6.03 µM)

Converted amounts (≈) assume the structure as drawn. The match of structure and compound is tentative.
